Test results from EP2686338B1, “FUNCTIONALIZED BIOMATERIALS FOR TISSUE REGENERATION” (Nanomed3d S.r.l., priority 2011, dated 2018).

What was measured:
[1] = tested on: NSCs cultured in suspension; assay: Phage biopanning (Ph.D.-7 library, three rounds, clone sequencing) against NSCs in suspension; type: cell-based, murine; conditions: after three rounds; for Eluted phage clones %: cell membrane bound phages (MP); for Internalized phage clones %: internalized clones (IP)
Procedure: (§1) Two days prior cell seeding murine NSCs were mechanically dissociated in order to seed the maximum percentage of stem cells.
(§2) The Ph.D.-7 phage library was used (New England Biolabs), composed of phage clones with random 7-mer peptides fused to the N-terminal of PIII, a minor coat protein of M13 phage.
(§3) Before biopanning experiments against NSCs in adhesion, the phage library was incubated in a Laminin-coated tissue culture dish in order to remove phages with affinity to the Laminin coated plastic surface (negative selection). Mouse Laminin (10 mL at 25 µg/ml concentration) (Roche) was incubated overnight at 37°C. 10^12 cfu of phages were incubated for one hour at 37°C in pre-warmed Incubation Medium (DMEM supplemented with 0.1% BSA) in Laminin-coated plastic surfaces (setting for adhering NSCs) or plain plastic surfaces (setting for NSCs in suspension). Then incubation Medium and a total volume of five washes of Washing Buffer (DPBS supplemented with 1% BSA and 0.05% Tween-20) were collected and eluted phages were amplified as described in the standard protocol of New England Biolabs.
(§4) 10^12 cfu of the negatively selected phage library were diluted in 10 ml Incubation Medium and pipetted onto the adhering NSCs or NSCs in suspension.
(§5) After 1 hour of incubation at 37°C cells were washed five times with pre-warmed Washing Buffer, cell membrane bound phages (MP) and internalized clones (IP) were recovered from independent duplicates of differentiating progenies by eluting and/or lysing the cells respectively. The cell surface was stripped by a 5 minutes incubation of 5 ml of Glycine Buffer (0.2 M Glycine-HCl supplemented with 1 mg/ml BSA (pH 2.2)) at RT. Eluted Phages were neutralized with 5 ml of 1 M Tris-HCl buffer (pH 8) and amplified.
(§6) Cells were then lysed with 9 ml of Lysing Buffer (0.1% TEA in PBS) for 5 minutes at RT. Internalized phages were neutralized with 1 ml of 1 M Tris-HCl buffer.
(§7) Neutralized phages were titered by infection of Escherichia coli to monitor the selection. Internalized and eluted phages were amplified separately for another round of selection. Three rounds of positive selection were performed. At round number two and three the biopannings of internalized and eluted phages were performed in different cell cultures (but with identical culture conditions) by collecting the phages of interest (i.e. internalized phages from libraries of internalized phages) and discarding the leftovers.
(§8) After the third round of biopanning, phage clones were randomly picked out from the titer plates and sequenced. Thirty phage plaques per each set of phages were randomly picked for sequencing. A small number of clones wasn't successfully sequenced. […] In the case of panning against NSC in suspension the highest consensus was for KLPGWSG (47.36 for MP), GETRAPL (14.28% for IP and 10.52% for MP) and HAIYPRH (28.57% for IP and 5.26% for MP).

murine NSCs = assay: Phage biopanning (Ph.D.-7 library, three rounds, clone sequencing) against adhering NSCs on Laminin; type: cell-based; conditions: after third round; for Eluted phage clones %: cell membrane bound phages (MP); for Internalized phage clones %: internalized clones (IP)
Procedure: as §1
NSCs, three million per plate, were seeded over Laminin coated 10 cm Petri dishes (Falcon). After an overnight incubation in 10ml of βFGF supplemented (10 ng/ml) neural basal media, cells were washed with pre-warmed Incubation Medium.
as §2, §3, §4, §5, §6, §7, §8

Row | Substance | Eluted phage clones % (murine NSCs) [%] | Internalized phage clones % (murine NSCs) [%] | other results
1 | ALTPWAF [heptapeptide] |  |  | Eluted phage clones % [1]: 10.52%
2 | FAQRVPP [heptapeptide] | 62.5 | 53.5 | 
3 | GETRAPL [heptapeptide] |  |  | Eluted phage clones % [1]: 10.52%; Internalized phage clones % [1]: 14.28%
4 | GKPMPPM [heptapeptide] |  |  | Eluted phage clones % [1]: 10.52%
5 | HAIYPRH [heptapeptide] |  |  | Eluted phage clones % [1]: 5.26%; Internalized phage clones % [1]: 28.57%
6 | KLPGWSG [heptapeptide] |  |  | Eluted phage clones % [1]: 47.36%
7 | LQAIPRN [heptapeptide] |  | 3.5 | 
8 | LTTGSGS | 4.2 |  | 
9 | QHLPRDH [heptapeptide] | 8.3 | 14.2 | 
10 | SASHWQI [heptapeptide] |  | 3.5 | 
11 | SILPYPY [heptapeptide] |  |  | Internalized phage clones % [1]: 14.28%
12 | SLPKLPP [heptapeptide] |  | 3.5 | 
13 | SSELVTH | 4.2 |  | 
14 | SSLSVND [heptapeptide] | 4.2 | 10.7 | 
15 | TAVNSDA | 4.2 |  | 
16 | TPLSSHS [heptapeptide] |  | 3.5 | 
17 | TPPFAAW | 4.2 |  | 
18 | TTTPTTP | 4.2 |  | 
19 | YIIPMHD [heptapeptide] | 4.2 | 3.5 | 
20 | YRMPIWP [heptapeptide] |  | 3.5 | 
